# Percent effect of library compounds

Amino acid sequences for entries named in this document (tags omitted). Residues count along the entry.
UniProt P9WPC5, whole entry: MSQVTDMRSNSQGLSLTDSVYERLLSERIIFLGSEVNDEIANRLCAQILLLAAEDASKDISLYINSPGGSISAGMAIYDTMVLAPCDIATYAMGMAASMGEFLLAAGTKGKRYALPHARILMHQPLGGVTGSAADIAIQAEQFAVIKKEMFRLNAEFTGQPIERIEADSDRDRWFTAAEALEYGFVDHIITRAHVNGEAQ
UniProt P9WPC3, whole entry partner: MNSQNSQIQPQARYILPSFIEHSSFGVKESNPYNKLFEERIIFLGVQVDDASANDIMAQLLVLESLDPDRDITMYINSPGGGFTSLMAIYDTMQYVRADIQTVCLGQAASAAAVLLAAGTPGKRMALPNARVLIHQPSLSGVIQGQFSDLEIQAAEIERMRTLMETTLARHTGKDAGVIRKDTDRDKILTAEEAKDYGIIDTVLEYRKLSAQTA
UniProt I6X8D2, whole entry: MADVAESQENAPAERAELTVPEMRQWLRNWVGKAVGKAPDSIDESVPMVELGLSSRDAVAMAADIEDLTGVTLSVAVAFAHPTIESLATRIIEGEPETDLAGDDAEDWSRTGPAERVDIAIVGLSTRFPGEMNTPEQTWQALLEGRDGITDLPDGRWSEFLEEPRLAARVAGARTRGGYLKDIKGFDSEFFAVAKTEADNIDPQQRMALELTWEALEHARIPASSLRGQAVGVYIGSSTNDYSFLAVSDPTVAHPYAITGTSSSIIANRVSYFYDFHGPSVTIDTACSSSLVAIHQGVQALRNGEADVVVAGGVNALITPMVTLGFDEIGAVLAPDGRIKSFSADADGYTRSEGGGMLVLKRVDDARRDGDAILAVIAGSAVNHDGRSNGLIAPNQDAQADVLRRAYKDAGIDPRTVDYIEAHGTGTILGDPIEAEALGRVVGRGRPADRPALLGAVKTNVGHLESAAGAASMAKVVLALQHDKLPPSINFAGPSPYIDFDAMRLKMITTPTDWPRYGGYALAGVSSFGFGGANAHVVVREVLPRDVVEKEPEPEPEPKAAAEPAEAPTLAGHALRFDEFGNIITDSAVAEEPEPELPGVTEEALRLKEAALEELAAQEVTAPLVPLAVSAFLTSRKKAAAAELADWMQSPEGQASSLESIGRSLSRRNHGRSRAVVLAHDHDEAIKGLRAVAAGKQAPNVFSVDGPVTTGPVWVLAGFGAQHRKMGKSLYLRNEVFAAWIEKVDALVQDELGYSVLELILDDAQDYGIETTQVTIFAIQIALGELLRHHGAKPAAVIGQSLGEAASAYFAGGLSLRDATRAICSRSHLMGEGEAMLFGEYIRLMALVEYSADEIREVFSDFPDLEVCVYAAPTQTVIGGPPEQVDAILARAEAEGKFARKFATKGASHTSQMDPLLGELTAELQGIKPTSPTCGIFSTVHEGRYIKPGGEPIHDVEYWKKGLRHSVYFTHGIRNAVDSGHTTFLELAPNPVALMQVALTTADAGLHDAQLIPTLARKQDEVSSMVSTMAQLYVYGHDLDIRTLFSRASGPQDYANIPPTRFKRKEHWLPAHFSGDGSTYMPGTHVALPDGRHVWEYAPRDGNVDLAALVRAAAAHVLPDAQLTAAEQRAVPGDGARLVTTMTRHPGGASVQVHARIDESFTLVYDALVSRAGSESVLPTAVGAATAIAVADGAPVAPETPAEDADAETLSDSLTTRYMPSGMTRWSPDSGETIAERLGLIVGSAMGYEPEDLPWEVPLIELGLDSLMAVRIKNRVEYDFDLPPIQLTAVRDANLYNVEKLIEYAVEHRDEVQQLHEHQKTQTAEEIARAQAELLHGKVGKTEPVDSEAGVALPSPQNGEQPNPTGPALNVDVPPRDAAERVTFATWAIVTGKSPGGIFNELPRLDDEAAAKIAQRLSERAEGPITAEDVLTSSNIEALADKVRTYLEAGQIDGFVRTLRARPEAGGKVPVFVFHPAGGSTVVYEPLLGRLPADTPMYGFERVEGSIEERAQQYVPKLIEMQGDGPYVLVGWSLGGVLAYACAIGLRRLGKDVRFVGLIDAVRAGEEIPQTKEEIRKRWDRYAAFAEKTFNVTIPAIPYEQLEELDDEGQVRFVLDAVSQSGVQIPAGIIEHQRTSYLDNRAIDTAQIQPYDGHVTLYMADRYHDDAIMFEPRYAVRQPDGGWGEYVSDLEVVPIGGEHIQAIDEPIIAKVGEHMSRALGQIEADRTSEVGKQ
UniProt P9WNZ1, whole entry: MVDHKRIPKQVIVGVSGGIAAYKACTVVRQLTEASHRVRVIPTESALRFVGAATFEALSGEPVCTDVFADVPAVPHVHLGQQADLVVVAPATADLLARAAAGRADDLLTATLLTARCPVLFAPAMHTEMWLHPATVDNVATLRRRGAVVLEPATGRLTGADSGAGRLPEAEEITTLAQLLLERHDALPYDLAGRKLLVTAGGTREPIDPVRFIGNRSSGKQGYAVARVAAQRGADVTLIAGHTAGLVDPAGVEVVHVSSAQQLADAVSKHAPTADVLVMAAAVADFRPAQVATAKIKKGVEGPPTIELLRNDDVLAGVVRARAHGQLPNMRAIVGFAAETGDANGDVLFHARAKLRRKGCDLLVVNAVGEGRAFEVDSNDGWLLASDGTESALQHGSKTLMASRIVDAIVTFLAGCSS
UniProt A4I591, 1-473: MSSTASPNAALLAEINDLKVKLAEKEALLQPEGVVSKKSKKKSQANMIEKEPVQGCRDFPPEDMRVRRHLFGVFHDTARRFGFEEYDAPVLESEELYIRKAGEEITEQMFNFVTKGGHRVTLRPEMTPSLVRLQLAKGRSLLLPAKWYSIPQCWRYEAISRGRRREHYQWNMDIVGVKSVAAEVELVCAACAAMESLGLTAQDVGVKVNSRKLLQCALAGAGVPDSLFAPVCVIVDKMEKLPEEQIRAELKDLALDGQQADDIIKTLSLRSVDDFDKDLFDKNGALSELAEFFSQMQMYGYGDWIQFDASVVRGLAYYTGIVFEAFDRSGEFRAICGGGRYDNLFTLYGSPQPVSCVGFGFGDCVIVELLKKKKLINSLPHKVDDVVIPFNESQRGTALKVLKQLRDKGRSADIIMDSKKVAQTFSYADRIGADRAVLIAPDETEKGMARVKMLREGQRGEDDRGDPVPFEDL
UniProt Q4DA54, 1-478: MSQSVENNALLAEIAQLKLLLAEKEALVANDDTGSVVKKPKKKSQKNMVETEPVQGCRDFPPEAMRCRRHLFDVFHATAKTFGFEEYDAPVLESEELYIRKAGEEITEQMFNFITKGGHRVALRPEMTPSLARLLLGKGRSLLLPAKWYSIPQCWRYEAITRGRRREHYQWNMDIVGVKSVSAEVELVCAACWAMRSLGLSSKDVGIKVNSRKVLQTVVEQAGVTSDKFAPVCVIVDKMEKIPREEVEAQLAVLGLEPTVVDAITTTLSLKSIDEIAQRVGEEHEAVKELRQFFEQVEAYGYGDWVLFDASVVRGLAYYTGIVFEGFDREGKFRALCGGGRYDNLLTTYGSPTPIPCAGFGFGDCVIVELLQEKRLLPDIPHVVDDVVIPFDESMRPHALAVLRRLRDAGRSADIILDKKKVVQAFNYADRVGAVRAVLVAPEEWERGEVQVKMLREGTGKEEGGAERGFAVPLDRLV

Results are given as percent effect. The record does not define 0% and 100%; most values in the screen are far below 50% and negative numbers occur (in some assays of this library far below -100). This is an unselected part of the compounds tested. A dash means the value is not listed here; it may have been measured.

ClpP1P2: 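Protease assay of ClpP1P2, read by the AMC dye that it sets free. Target: ClpP1P2, Mycobacterium tuberculosis (UniProt P9WPC5 and UniProt P9WPC3). Tested at 50 µM. Higher reads as stronger inhibition, judged from the few compounds that gave an IC50. Most other retested compounds had strongly negative values. Size under these conditions: about 69,000 compounds, about 10 of them at 50% or above in at least one test.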
Pks13 thioesterase: 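Enzyme assay of the thioesterase domain of polyketide synthase 13; the read-out is not stated. Target: Polyketide synthase Pks13, Mycobacterium tuberculosis (UniProt I6X8D2). Tested at 30 µM. Higher reads as stronger inhibition (inferred from which compounds were picked for retests). Size under these conditions: about 67,000 compounds, about 300 of them at 50% or above in at least one test.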
CoaBC: 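Enzyme assay of CoaBC with a phosphate dye (Biomol Green) read at 650 nm. Target: Coenzyme A biosynthesis protein CoaBC, Mycobacterium tuberculosis (UniProt P9WNZ1). Tested at 30 µM. Direction is inferred from only a few compounds that gave an IC50; most scored high, so higher reads as stronger inhibition. Most strong results did not repeat in a second test. Size under these conditions: about 67,000 compounds, about 40 of them at 50% or above in at least one test.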
LiHisRS: 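Enzyme assay of histidyl-tRNA synthetase; the read-out is not stated. Target: Histidine-tRNA ligase, Leishmania infantum (UniProt A4I591). Tested at 30 µM. Higher reads as stronger inhibition (inferred: compounds with an IC50 in retests scored well above the rest). The assay is labelled LdHisRS but filed under L. infantum. Size under these conditions: about 69,000 compounds, about 410 of them at 50% or above in at least one test.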
TcHisRS: 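Enzyme assay of histidyl-tRNA synthetase; the read-out is not stated. Target: Histidine-tRNA ligase, Trypanosoma cruzi CL Brener (UniProt Q4DA54). Concentration: 30 µM. Direction is inferred from retests: higher values go with stronger inhibition. Size under these conditions: about 69,000 compounds, about 31 of them at 50% or above in at least one test.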

SMILES | ClpP1P2 | Pks13 thioesterase | CoaBC | LiHisRS | TcHisRS
Cc1cccc(C(=O)N2C[C@@H]3CC[C@H](Oc4cccc(F)c4)[C@@H]3C2)n1 | -6.036% | 3.528% | 9.294% | 10% | 8.989%
CNC(=O)[C@@H](C1CCCCC1)N1CCC[C@H]1C(=O)NC1CC1 | 4.248% | -32.54% | -2.935% | 19.44% | 0.9901%
O=C(c1ccnn1-c1ccc2ccccn12)N1CCCC1 | -7.263% | 0.1844% | 2.716% | 6.364% | 0%
CCc1nccn1-c1cncc(C2CCCN2CC(=O)N2CCCC2)n1 (centres undefined) | -8.549% | 2.095% | 2.67% | 4.348% | 2.198%
Fc1cccc(N2CCCC3(CN(Cc4nccs4)CCO3)C2)c1 (centres undefined) | -8.047% | 8.429% | 1.112% | 21% | 8.163%
CC(C)=CCN1C[C@H]2CC[C@@H]1CN(Cc1cc(=O)[nH]c(=O)[nH]1)C2 | -1.479% | -42.65% | -15.29% | 16% | 4.891%
Cc1noc(C)c1C(=O)N1C[C@H]2CCC[C@@]2(COc2ccccn2)C1 | -3.89% | -9.177% | 6.306% | 17.65% | 0.5464%
Cc1cnn(CC2CCCN2C(=O)c2cccc(-n3ccc(C)n3)c2)c1 (centres undefined) | -11.46% | -1.655% | -3.07% | 1.786% | -0.5814%
CN1C(=O)CC(C(=O)O)C12CCN(Cc1ccc(Cl)c(F)c1)CC2 (centres undefined) | 0.06547% | 18.31% | -0.2179% | -3.509% | 1.093%
CCOCC(=O)N1C[C@H]2CN(CC3CC3)C(=O)[C@H]2C1 | -11.05% | -37.49% | -0.2545% | 19.42% | 12.62%
Cc1nc(C(NC(=O)c2cc(C(C)C)[nH]n2)c2ccccc2)n[nH]1 (centres undefined) | 4.415% | -15.72% | 5.579% | 19.18% | 4.762%
CN(c1ccc(F)c(F)c1)S(=O)(=O)c1cc(C(=O)O)cs1 | -5.674% | -2.571% | 1.068% | -121.4% | 6.015%
Cc1ccoc1C(=O)NC1CCN(C(=O)Nc2ccccn2)CC1 | -52.83% | -6.581% | 5.222% | 7.965% | 3.207%
COc1cccc(NC(=O)CNc2ccc(C(=O)N(C)C)c(Cl)c2)c1 | 8.156% | -38.06% | 12.61% | 13.09% | 3.743%
O=C(C1CCOC1)N1CCc2ncnc(-c3cccnc3)c2CC1 (centres undefined) | -9.499% | 17.85% | -6.452% | -5.556% | 5.473%
O=C(O)[C@@H]1CN(C(=O)c2cc(C3CC3)n[nH]2)C[C@H]1c1cccc(F)c1 | -1.904% | -18.39% | 17.85% | 17.14% | 0%
CCN(c1ccc(C(=O)N2CCCCCC2)cc1)S(=O)(=O)CC | -2.309% | 15.36% | 1.324% | 8.989% | -0.5025%
CN(C)C(=O)CN1CCC2(COCc3cnc(-c4cccnc4)nc32)C1 (centres undefined) | 1.888% | -6.08% | 4.444% | 13.64% | 8.466%
Cn1cc(C(=O)N2CCN(c3ncccn3)CC2)ccc1=O | -10.62% | -13.3% | 11.4% | 5.357% | 2.907%
CC(C)=CCN1C[C@H]2CC[C@@H]1CN(C(=O)Cn1c(C)cc(C)nc1=O)C2 | -19.95% | 6.314% | 0.7453% | 23.81% | -1.538%
CCCOc1cc(Cl)c(CN2CCNC(C(=O)NC3CC3)C2)cc1OC (centres undefined) | -31.64% | -7.816% | 6.584% | 14.17% | 3.865%
OCC1(O)CCN(c2ccnc3c(C(F)(F)F)cccc23)CC1 | -3.592% | 5.614% | -0.1272% | 14.63% | 4.327%
CN(Cc1cc(-c2ccccc2)no1)CC1CCCN1c1cccnn1 (centres undefined) | -10.62% | 3.654% | -33.89% | 16.98% | 6.667%
Cn1ccnc1CN1C(=O)CO[C@H]2CN(CCCc3ccccc3)C[C@H]21 | -0.409% | -24.78% | 1.987% | 17.57% | 13.04%
CN(C)Cc1cccc(C(=O)N2CCCC(n3cncn3)C2)c1 (centres undefined) | -8.393% | -2.599% | 10.06% | 12.28% | 0.8596%
O=C1COc2c(cccc2C(=O)N2CCCCC2Cn2cccn2)N1 (centres undefined) | 11.55% | -17.73% | 10.77% | 10.67% | 4.151%
CC(C)[C@@H]1CN(Cc2c[nH]nc2-c2ccc(F)cc2)C[C@H]1NS(C)(=O)=O | -9.035% | -5.783% | 1.794% | 6.557% | -12.45%
Cn1cc(CN2CCCN(C(=O)c3cn4ccccc4n3)CC2)cn1 | 31.52% | -15.28% | 6.736% | 14.89% | -0.7634%
O=C1CO[C@H](c2ccc(NS(=O)(=O)c3ccccc3)cc2)[C@@H](CO)N1 | -12.53% | 8.113% | 8.448% | 10.81% | -15.42%
CSCCC(=O)N1CC[C@@H](N2CCN(c3ccccc3F)CC2)[C@H](O)C1 | -7.284% | - | -1.098% | -13.19% | 0.6024%
CC(C)CN1C(=O)COC[C@@H]1[C@H](O)c1ccc(NC(=O)C2CC2)cc1 | -1.145% | -21.36% | -0.9823% | 32.43% | -2.488%
COc1cc(N2CCC3(CC2)CC(N2CCN(C)CC2)CO3)ncn1 (centres undefined) | -6.876% | -26.51% | 4.071% | 5.825% | 0%
CCc1noc(C2CCCCN2C(=O)c2nnc3ccccc3n2)n1 (centres undefined) | 3.329% | -34.03% | 2.557% | 33.01% | 6.011%
CC(=O)NCc1ccc(S(=O)(=O)NC(=O)c2ccc3c(c2)COC3)cc1 | -0.908% | -15.84% | -1.099% | 2.857% | 5.155%
Cc1cccc2[nH]cc(CC(=O)N3CCC(Nc4cccnn4)CC3)c12 | -20.75% | 1.192% | -2.91% | 4.386% | 3.198%
CC(C)c1nn(C)c(N(C)C)c1CNCC(O)c1cccc(F)c1 (centres undefined) | -55.73% | -25.29% | 7.05% | 15.04% | 6.706%
Cc1c(C2c3nc[nH]c3CCN2CCOCc2ccccc2)cnn1C (centres undefined) | 5.304% | -14.78% | -1.225% | 8.889% | 9.524%
Cc1ccc(C(=O)N2CC[C@@H](N(C)C)[C@@H]2Cc2cnn(C)c2)cn1 | -4.562% | -6.881% | 6% | 16% | 5.882%
COc1ccc(CN2CCN(CCn3ccnc3)CC2)cc1F | -6.942% | -7.795% | 1.695% | 19.57% | 7%
Cc1ccc(CN2Cc3nnn(C)c3C(COCC3CC3)C2)s1 (centres undefined) | -23% | -19.69% | 6.914% | 13.89% | 6.542%
CCCc1cc(C(=O)N(Cc2cccnc2)Cc2cccnc2)[nH]n1 | -1.326% | -2.155% | 1.829% | 19.78% | 11.45%
COc1c(CC2CC(CO)=NO2)c(Br)c2c(c1OC)OCO2 (centres undefined) | -33.97% | -21.68% | 3.061% | 16.05% | 4.911%
c1cncc(-c2nnn3c2COCC(CNCC2CCOCC2)C3)c1 (centres undefined) | 8.813% | -21.64% | -5.477% | 15.6% | 10.92%
Cc1ccccc1N1CCCN(CC2(O)CCCNC2)CC1 (centres undefined) | -0.9186% | -17.18% | -29.03% | 9.211% | 6.404%
Cc1ccc(CNC(=O)NCc2ccco2)s1 | -13.47% | -8.721% | 5.897% | 10.84% | 6.468%
CCOC(=O)N1[C@@H](c2ccco2)[C@@H](C(=O)O)C[C@]12CCCCNC2=O | 6.597% | 19% | 0.9685% | 16.33% | 6.742%
Cc1nc(N2CCOCC2)nc2c1CN(C(=O)C(C)C)CC2 | 4.562% | -14.29% | -0.4706% | 21.1% | 0.4808%
CC(=O)Nc1ccc(OCc2noc(C(=O)N3CCCC3)n2)cc1 | 15.14% | -2.485% | 0.4819% | 14.29% | 9.901%
O=C(NCc1cccnc1OCC(F)(F)F)N1CCOCC1 | 9.589% | 3.89% | 1.585% | 15.38% | 7.831%
Cc1cc(N(C)C)cc(C2CCN(S(=O)(=O)c3cccs3)C2)n1 (centres undefined) | -13.08% | 1.991% | 8.373% | -10.07% | 10.34%
Cc1cnc(NCc2ccc(S(=O)(=O)N(C)C(C)C)cc2)nc1C | 0.9431% | -3.25% | -3.733% | 9.649% | 12.07%
CNC(=O)C1CCN(Cc2cc3c(cc2O)CCC3)CC1 | 6.879% | -15.77% | - | 25.71% | 2.597%
CN(Cc1ccc(Br)s1)Cn1nc(-c2ccccc2)oc1=O | 8.145% | -6.956% | 6.855% | 21.05% | 5.882%

Some entries from above, unchanged:

SMILES	ClpP1P2	Pks13 thioesterase	CoaBC	LiHisRS	TcHisRS
Cc1cc(N(C)C)cc(C2CCN(S(=O)(=O)c3cccs3)C2)n1 (centres undefined)	-13.08%	1.991%	8.373%	-10.07%	10.34%
CC(C)CN1C(=O)COC[C@@H]1[C@H](O)c1ccc(NC(=O)C2CC2)cc1	-1.145%	-21.36%	-0.9823%	32.43%	-2.488%
Cc1cccc2[nH]cc(CC(=O)N3CCC(Nc4cccnn4)CC3)c12	-20.75%	1.192%	-2.91%	4.386%	3.198%
CC(C)=CCN1C[C@H]2CC[C@@H]1CN(Cc1cc(=O)[nH]c(=O)[nH]1)C2	-1.479%	-42.65%	-15.29%	16%	4.891%

Measurements from “University of Dundee, Small-Polar-MMV Screening Library” (2021), ChEMBL document CHEMBL3988442.